Data: PubChem BioAssay AID540276 (National Center for Advancing Translational Sciences (NCATS), 2011)
The whole screen tested about 300,000 compounds, of which about 5,400 (1.8%) were called active. Inconclusive means that the source gave no clear call. Such entries were picked first, then a sample of the others. The call rests on the fitted dose curve; tested in HEK293 cells. A potency beside an inconclusive call is a rough fit, not a confirmed value.

assay: qHTS for inhibitors of binding or entry into cells for Marburg Virus; conditions: Marburg virus pseudotyped entry inhibition, cell reporter; activity change, negative = inhibition: at 37.8 µM (top of the series) unless noted
On the % scale 0 is the no-effect control and ±100 the full control effect; potency means the concentration at half of the fitted maximal effect.

Q: For `c1ccc(-c2nc3ccccn3c2-c2ccccc2)cc1`, which Potency is on record?
A: Its Potency is inconclusive: 12.6 µM [inhibitor, single point].

Q: With `CCn1c(SCC(=O)N/N=C/c2c[nH]c3ccccc23)nnc1-c1ccc(C(C)(C)C)cc1` as the molecule, how does the Potency read?
A: The Potency was inconclusive: 35.5 µM [inhibitor, single point].

Q: Which Potency does the source give for `COc1ccc(CNc2cc(C)nc3ncnn23)c(OC)c1` here?
A: The Potency was inconclusive: 2.06 µM [inhibitor, partial curve].

Q: Which “activity change, negative = inhibition” value does the source give for `CCOC(=O)c1ccccc1NC(=O)CSc1nnnn1C` here?
A: The value was inactive: 7.22%.

Q: With `Cc1ccccc1OCC(=O)NNC(=O)CCN1C(=O)c2ccccc2C1=O` as the molecule, how does the Potency read?
A: Its Potency is inconclusive: 10 µM [activator, partial curve, poor fit].

Q: With `FC(F)(F)c1ccc(Oc2ccc3ccccc3c2Br)nc1` as the molecule, how does the Potency read?
A: The Potency was inconclusive: 35.5 µM [inhibitor, single point].

Q: For `O=C(Cc1cccc2ccccc12)Nc1ccccc1C(=O)O`, which Potency is on record?
A: Its Potency is active: 14.6 µM.

Q: With `Cc1ccc(-c2ccc(=O)n(CC(=O)Nc3ccc(F)c(Cl)c3)n2)cc1C` as the molecule, how does the “activity change, negative = inhibition” value read?
A: Its value is inactive: 6.31% [at 46.1 µM].

Q: For `O=C(O)Cc1cnc[nH]1`, which Potency is on record?
A: The Potency was inconclusive: 0.562 µM [inhibitor, full curve, poor fit].

Q: With `CCOc1ccc(CCNc2nc3c(-c4ccc(C)cc4)nnn3c3ccccc23)cc1OCC` as the molecule, how does the activity change, negative = inhibition read?
A: The activity change, negative = inhibition was inconclusive: 3.39% [activator] [at 46.1 µM].

Q: Which Potency does the source give for `Cc1nc(SCC(=O)c2ccccc2)c(C#N)c(-c2ccco2)c1C(=O)NCc1ccco1` here?
A: Its Potency is inconclusive: 25.1 µM [inhibitor, single point].

Q: Which “activity change, negative = inhibition” value does the source give for `Cc1ccc(OCC(O)CNC(=O)c2ccccc2C(=O)O)cc1` (configuration not stated) here?
A: Its value is inactive: 1.15% [at 46.1 µM].

Q: For `Cc1ccc(N2C(=O)N(Cc3ccccc3C)c3ccccc3S2(=O)=O)cc1`, which “activity change, negative = inhibition” value is on record?
A: The value was inactive: 18.2%.

Q: With `CCn1nnc(-c2ccccc2NC(=O)c2cc(OC)c(OC)c(OC)c2)n1` as the molecule, how does the Potency read?
A: The Potency was inconclusive: 10.3 µM [inhibitor, partial curve].

Q: With `O=C(Nc1c(C(=O)N2CCCC2)cnn1-c1ccccc1)c1cccc(F)c1` as the molecule, how does the Potency read?
A: The Potency was inconclusive: 23.1 µM [inhibitor, single point].

Q: With `Cc1nc2ccc(NC(=O)N(C(C)C)C(C)C)cc2s1` as the molecule, how does the “activity change, negative = inhibition” value read?
A: Its value is inactive: 1.75%.

Q: For `Cc1cc(C)nc(NC(=NCCc2c[nH]c3ccccc23)NC(=O)c2ccco2)n1`, which Potency is on record?
A: Its Potency is active: 11.2 µM.

Q: Which “activity change, negative = inhibition” value does the source give for `CC(C(=O)N1CCc2ccccc21)n1cccc1` (configuration not stated) here?
A: The value was inactive: 17%.

Q: With `Fc1ccc(-n2cc(-c3ccccc3)c3c(N4CCOCC4)ncnc32)cc1` as the molecule, how does the Potency read?
A: Its Potency is inconclusive: 10 µM [inhibitor, partial curve, poor fit].

Q: For `Cc1ccccc1-c1ccc(C(=O)NCc2ccccc2)o1`, which “activity change, negative = inhibition” value is on record?
A: Its value is inactive: 11.1%.

Q: With `Cc1ccc(Nc2nc(Oc3ccc(OCc4ccccc4)nn3)nc(N3CCOCC3)n2)cc1` as the molecule, how does the Potency read?
A: Its Potency is inconclusive: 3.16 µM [inhibitor, full curve, poor fit].

Q: For `COc1ccc(-c2csc(NC(=O)CN3C(=O)CCC3=O)n2)cc1OC`, which Potency is on record?
A: The Potency was inconclusive: 1 µM [activator, full curve, poor fit].

Q: For `CCOc1ccc(OCC(=O)Nc2ccc(N3CCCCC3)cc2)cc1`, which “activity change, negative = inhibition” value is on record?
A: The value was inactive: -9.36%.

Q: Which Potency does the source give for `CC(C)CC(=O)NC(=S)Nc1ccc(Cl)cn1` here?
A: Its Potency is inconclusive: 18.4 µM [activator, partial curve, poor fit].

Q: For `CC(C)(C)C(=O)NNC(=O)c1cc(C(C)(C)C)nn1Cc1ccccc1`, which Potency is on record?
A: Its Potency is active: 10 µM.

Q: With `COC(=O)c1ccc(NC(=O)CN2C(=O)CSC2=O)cc1` as the molecule, how does the Potency read?
A: The Potency was inconclusive: 1.64 µM [activator, partial curve, poor fit].

Q: With `CCOC(=O)c1sc(NC(=O)c2ccc3nc[nH]c3c2)nc1C` as the molecule, how does the Potency read?
A: Its Potency is inconclusive: 35.5 µM [inhibitor, single point].

Q: Which Potency does the source give for `CC(C)(C)N(Cc1ccccc1)C(=O)COC(=O)C1CC1` here?
A: The Potency was inconclusive: 0.112 µM [inhibitor, full curve, poor fit].

Q: For `CC(C)(C)NC(=S)N1CCn2cccc2C1c1cccnc1` (configuration not stated), which Potency is on record?
A: Its Potency is inconclusive: 3.98 µM [activator, single point].

Q: Which Potency does the source give for `CCOc1ccc(S(=O)(=O)NCc2ccncc2)cc1` here?
A: Its Potency is inconclusive: 0.82 µM [inhibitor, full curve, poor fit].

Q: With `COc1ccc(OC)c(C(=O)C(=O)c2cc(OC)ccc2OC)c1` as the molecule, how does the Potency read?
A: Its Potency is inconclusive: 3.98 µM [inhibitor, full curve].

Q: With `O=C(NCc1ccco1)c1ccc(S(=O)(=O)c2cccc(S(=O)(=O)N3CCOCC3)c2)cc1` as the molecule, how does the Potency read?
A: The Potency was “inactive”.

Q: With `COc1cc(/C=C/C(=O)c2ccc3c(c2)OCCO3)cc(Br)c1OCC(=O)N(C)C` as the molecule, how does the Potency read?
A: Its Potency is inconclusive: 12.6 µM [inhibitor, partial curve, poor fit].

Q: For `CC1CCCCN1CC(=O)N1CCCc2c1c(=O)oc1ccc(OCc3ccccc3)cc21` (configuration not stated), which Potency is on record?
A: The Potency was inconclusive: 35.5 µM [inhibitor, partial curve, poor fit].

Q: For `O=C(c1ccc(F)cc1F)N1CCCC(c2nc(-c3cccs3)no2)C1` (configuration not stated), which “activity change, negative = inhibition” value is on record?
A: Its value is inactive: -21.7% [at 46.1 µM].

Q: With `O=C(Nc1cccc(NC(=O)c2ccco2)c1)c1ccccc1` as the molecule, how does the “activity change, negative = inhibition” value read?
A: The value was inactive: 6.39% [at 46.1 µM].

Q: With `CCCN(CCC)S(=O)(=O)c1ccc(C(=O)NNC(=O)c2cc(OC)c(OC)c(OC)c2)cc1` as the molecule, how does the Potency read?
A: Its Potency is inconclusive: 7.08 µM [inhibitor, partial curve, poor fit].

Q: For `O=C(O)c1cncc(C#Cc2ccccc2)c1`, which “activity change, negative = inhibition” value is on record?
A: The value was inactive: 19.9% [at 46.1 µM].

Q: For `Cc1ccc(NC(=O)CNc2cccc(S(=O)(=O)N3CCCC3)c2)cc1F`, which Potency is on record?
A: The Potency was inconclusive: 35.5 µM [inhibitor, single point].

Q: With `Cc1ccc(C(=O)c2oc3ccccc3c2NC(=O)Cc2coc3c(C)c(C)ccc23)cc1` as the molecule, how does the Potency read?
A: The Potency was inconclusive: 2.82 µM [inhibitor, partial curve, poor fit].

Q: For `COc1cc(C)ccc1OCCSc1nnc(-c2ccc(C)cc2)o1`, which “activity change, negative = inhibition” value is on record?
A: Its value is inactive: 2.55% [at 46.1 µM].

Q: For `Cc1ccc(-n2nnnc2-c2cnc3ccc(Cl)cc3c2-c2ccccc2)cc1`, which Potency is on record?
A: Its Potency is inconclusive: 14.6 µM [inhibitor, partial curve, poor fit].

Q: With `Cc1cccc(/C=C2\Sc3ccc(C(=O)N4CCC(C)CC4)cc3N(C)C2=O)c1` as the molecule, how does the “activity change, negative = inhibition” value read?
A: The value was inactive: -43.2% [at 46.1 µM].

Q: Which Potency does the source give for `COc1ccc(-c2nc3ccccc3n2Cc2ccc(Cl)cc2)cc1` here?
A: The Potency was inconclusive: 35.5 µM [inhibitor, single point].

Q: With `Cn1cc(CN2CCc3ccccc3C2)c2ccccc21` as the molecule, how does the Potency read?
A: The Potency was inconclusive: 6.51 µM [inhibitor, partial curve, poor fit].

Q: Which “activity change, negative = inhibition” value does the source give for `Cc1ccc(NC(=O)N2CCCC2C(=O)Nc2ccc3c(c2)OCO3)cc1` (configuration not stated) here?
A: Its value is inactive: 12.5% [at 46.1 µM].

Q: With `Cc1ccc(O)c(C(=O)c2cc(C(=O)NCc3ccccc3)c(=O)n(Cc3ccccc3)c2)c1` as the molecule, how does the Potency read?
A: Its Potency is inconclusive: 20 µM [inhibitor, partial curve, poor fit].

Q: Which Potency does the source give for `Cc1ccc(C)c(-n2nnnc2SCC(=O)c2ccc3c(c2)NC(=O)CO3)c1` here?
A: The Potency was inconclusive: 32.6 µM [inhibitor, single point].

Q: For `CCP(=O)(c1cccc([N+](=O)[O-])c1)c1cccc([N+](=O)[O-])c1`, which Potency is on record?
A: The Potency was inconclusive: 0.282 µM [inhibitor, partial curve, poor fit].

Q: Which “activity change, negative = inhibition” value does the source give for `COc1cc(/C=C2\CCC(C3CCCC3)C2=O)ccc1OC(C)C` (configuration not stated) here?
A: Its value is inactive: 19.7% [at 46.1 µM].

Q: With `COc1ccccc1NS(=O)(=O)c1cc(NC(=O)c2ccc(=O)[nH]c2)ccc1N1CCOCC1` as the molecule, how does the Potency read?
A: The Potency was inconclusive: 6.51 µM [activator, partial curve].

Q: For `CCC1CCCCN1CCCNC(=O)CNC(=O)c1nn(-c2ccc(OC)c(Cl)c2)c(=O)c2ccccc12` (configuration not stated), which Potency is on record?
A: Its Potency is inconclusive: 35.5 µM [inhibitor, partial curve, poor fit].

Q: With `CC(=O)CCc1c[nH]c2c(C(=O)O)cccc12` as the molecule, how does the “activity change, negative = inhibition” value read?
A: Its value is inactive: -2.02%.

Q: For `CNCCCOc1cccc(Oc2ccccc2)c1`, which Potency is on record?
A: The Potency was inconclusive: 35.5 µM [inhibitor, single point].

Q: Which Potency does the source give for `CCc1nc(SCc2ccc(F)cc2)[nH]c(=O)c1C#N` here?
A: Its Potency is inconclusive: 35.5 µM [activator, single point].

Q: With `CCOC(=O)c1sc(SCC(=O)Nc2ccc(N(C)C)cc2)nc1N` as the molecule, how does the “activity change, negative = inhibition” value read?
A: The value was inactive: -18.3%.

Q: For `Cc1cc(C(=O)COC(=O)c2ccc(O)cc2O)c(C)n1-c1ccc(OC(F)F)cc1`, which Potency is on record?
A: Its Potency is active: 7.94 µM.

Q: With `COC(=O)c1c(NC(=O)/C=C/C(=O)O)sc(C)c1-c1ccc(C)cc1` as the molecule, how does the Potency read?
A: The Potency was inconclusive: 35.5 µM [inhibitor, single point].

Q: For `O=C(O)CN1CCN(Cc2ccc(F)cc2Cl)C1=O`, which “activity change, negative = inhibition” value is on record?
A: Its value is inactive: 7.66%.

Q: Which Potency does the source give for `CCC(=NCCCN1CCOCC1)c1c(O)n(Cc2ccccc2)c(=O)[nH]c1=O` here?
A: The Potency was inconclusive: 29.1 µM [activator, single point].

Q: Which “activity change, negative = inhibition” value does the source give for `COc1ccccc1N1CCN(CC(=O)Nc2cccc(F)c2)CC1` here?
A: The value was inactive: 0%.

Q: For `N#Cc1ccccc1CSc1ccc(-c2nc3ccccc3[nH]2)cn1`, which Potency is on record?
A: Its Potency is inconclusive: 29.1 µM [inhibitor, single point].

Q: For `COc1ccc(CNC(=O)CN(C(=O)c2snc(C(N)=O)c2N)c2ccc(F)cc2)cc1`, which “activity change, negative = inhibition” value is on record?
A: The value was inactive: -25.1% [at 46.1 µM].

Q: Which Potency does the source give for `Cc1cc2c3c(c1C)C1(C(=O)N3C(C)(C)CC2C)C(C#N)=C(N)Oc2cc(O)ccc21` (configuration not stated) here?
A: The Potency was inconclusive: 29.1 µM [inhibitor, single point].

Q: Which “activity change, negative = inhibition” value does the source give for `COc1ccc(/C=C2\SC(N3CCCCC3)=NC2=O)cc1OC` here?
A: Its value is inactive: 26% [at 46.1 µM].

Q: For `O=C(N/N=C/c1cccc(Oc2ccccc2)c1)c1cccc(O)c1`, which Potency is on record?
A: The Potency was inconclusive: 35.5 µM [inhibitor, single point].

Q: For `Cc1cc(NC(=O)CSc2nnc(COc3cccc(C)c3C)n2Cc2ccco2)no1`, which “activity change, negative = inhibition” value is on record?
A: The value was inactive: 16.4%.

Q: With `Cc1noc2nc(C(=O)O)nc(N3CCCCC3)c12` as the molecule, how does the “activity change, negative = inhibition” value read?
A: The value was inactive: 18.4% [at 46.1 µM].

Q: Which “activity change, negative = inhibition” value does the source give for `COCCCN1C(=O)c2ccc(C(=O)NCc3ccccn3)cc2C1=O` here?
A: Its value is inactive: -6.52% [at 46.1 µM].

Q: For `COc1ccc(C(=O)OCn2nnc3ccccc3c2=O)cc1OC`, which Potency is on record?
A: Its Potency is inconclusive: 3.55 µM [inhibitor, single point].

Q: With `C=C(C)c1cccc(C(C)(C)NC(=O)Nc2ccc(Cl)cn2)c1` as the molecule, how does the Potency read?
A: Its Potency is inconclusive: 35.5 µM [inhibitor, single point].

Q: With `COc1cccc(C(=O)Nc2cccc3ccccc23)c1` as the molecule, how does the Potency read?
A: The Potency was inconclusive: 0.316 µM [inhibitor, partial curve, poor fit].
